Experimental findings from the supplement of paper PMC10338343 are described below.

± gives the standard deviation. This is one part of the list. Many entries were measured with a wide error.

The first assay deals with EfPiwi piRISC loaded with L1MC piRNA (26 nt). As to the kind of experiment: pre-steady-state target cleavage rate (min^-1); guide: L1MC piRNA 5'p-UAACUAAAUACUAUGCAAGCUGUAGG; MIWI and MILI are mouse PIWI proteins and EfPiwi is from a freshwater sponge; tags in brackets are library labels; higher = faster piRNA-guided slicing of the target. Conditions: auxiliary factor: 500 nM Ephydatia muelleri Gtsf1. The method in brief: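 The pre-steady-state cleavage rate came from a burst-and-steady-state fit to pooled data from three Cleave-'n-Seq trials, in which uncleaved targets were sequenced and normalised to depth and to weakly complementary targets. Each reaction held 0.1 nM transcribed, DNA-blocked target RNA library and 1 nM active affinity-purified piRISC carrying one synthetic guide, with or without 500 nM GTSF1 partner protein, in HEPES–potassium acetate buffer at 33 °C for 0–8 or 0–960 min. k3 was capped at 0.0001 min^-1.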
On to UCCUGGAUGUCGAACGUAUGUAUUUAGAAA, for which the “pre-steady-state target cleavage rate” value was 0.000136 ± 0.041.
Same read-out and setting: with UCCUCCUACUGCUUGCAUAGUAUUAAGUUA the figure was 0.00682 ± 0.0034; with UCCUGGAUGAGCUUGCAUAGUAUUUACGUUA, 0.00466 ± 0.0026.
Same read-out and setting: with UCCUGCUACACUUGCAUAGUAUUUAGUUA the figure was 0.00903 ± 0.0027.

Still in this assay, the particulars now being: auxiliary factor: none (no Gtsf1).
In the case of UCCUGGAUGAGCUUGCAUAGUAAUUUAGUUA, the “pre-steady-state target cleavage rate” value turned out to be 0.00116 ± 0.013.
Still for that read-out and setting: next, UCCUGGAUGUCGAACGAUUAGUAUUUAGUUA: 0.000103 ± 0.022; UCCUGGUACAGCUUGCAUAGUAUAUUGUUA: 0.000409 ± 0.023.
Regarding UCCUGGAUGUCGAACGUUAGUUUUUUGUUA, the “pre-steady-state target cleavage rate” value is under 0.0001.
Still for that read-out and setting: with UCCUGGAUGUGCUUGCAUAGUAUUUAGAAA the figure was 0.000322 ± 0.026; with UCCUGGAAGAGGUUGCAUAGUAUUUAGUUA, 0.00126 ± 0.0094; with UCCUCCUACACCUUGCAUUGUAUUUAGUUA, 0.00058 ± 0.0097.
Still for that read-out and setting: next, UCCUGGAUCAGCUGGCAUAGUAUUUAGUUA: 0.000859 ± 0.0098.
As for UCCUGCUACAGCUUGGAUAGAAUUUAGUUA, the “pre-steady-state target cleavage rate” value came out at 0.00103 ± 0.0089.
On the same count and under the same terms, with UCCUGCUACAGCUUUCAUAGUAUUUAGUUA the figure was 0.000621 ± 0.011; with UCCUGGUACAGCUUGCACAGUAUUUAGUUA, 0.00179 ± 0.0065.
